Results as given in the supplement of paper PMC12819154, “High-throughput peptide-centric local stability assay extends protein–ligand identification to membrane proteins, tissues and bacteria” (Nature Structural & Molecular Biology, 2025).
This is one part of the list. Most values lie at the level of the controls, where differences are scatter.

The chains behind the UniProt entries cited, without tags or fusion partners. Where a name states a change or a piece, a line headed by the entry shows the natural chain unless it says otherwise.
UniProt Q8WXE9: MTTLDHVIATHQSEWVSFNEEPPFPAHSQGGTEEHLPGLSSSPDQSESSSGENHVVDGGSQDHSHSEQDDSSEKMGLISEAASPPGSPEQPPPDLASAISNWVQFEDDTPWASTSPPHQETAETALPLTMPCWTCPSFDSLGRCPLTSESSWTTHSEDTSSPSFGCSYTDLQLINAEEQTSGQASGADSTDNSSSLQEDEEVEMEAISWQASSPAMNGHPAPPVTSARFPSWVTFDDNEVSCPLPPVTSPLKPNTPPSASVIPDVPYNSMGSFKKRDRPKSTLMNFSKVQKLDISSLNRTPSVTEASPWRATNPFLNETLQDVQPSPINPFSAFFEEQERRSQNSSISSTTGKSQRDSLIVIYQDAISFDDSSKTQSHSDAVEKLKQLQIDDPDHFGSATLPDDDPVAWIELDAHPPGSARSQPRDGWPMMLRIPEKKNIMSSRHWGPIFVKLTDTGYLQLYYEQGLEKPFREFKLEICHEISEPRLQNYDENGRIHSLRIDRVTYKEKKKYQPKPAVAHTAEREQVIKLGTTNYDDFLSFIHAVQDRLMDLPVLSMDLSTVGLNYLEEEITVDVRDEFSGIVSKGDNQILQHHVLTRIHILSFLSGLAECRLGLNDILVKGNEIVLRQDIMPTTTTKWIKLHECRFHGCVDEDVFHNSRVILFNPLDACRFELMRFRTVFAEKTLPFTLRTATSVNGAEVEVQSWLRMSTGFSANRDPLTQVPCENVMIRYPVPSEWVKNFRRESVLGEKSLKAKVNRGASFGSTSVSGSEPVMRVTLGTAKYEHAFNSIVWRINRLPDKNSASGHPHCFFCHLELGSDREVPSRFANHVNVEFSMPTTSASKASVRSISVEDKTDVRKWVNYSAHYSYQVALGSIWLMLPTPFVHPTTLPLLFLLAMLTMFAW
UniProt Q92733: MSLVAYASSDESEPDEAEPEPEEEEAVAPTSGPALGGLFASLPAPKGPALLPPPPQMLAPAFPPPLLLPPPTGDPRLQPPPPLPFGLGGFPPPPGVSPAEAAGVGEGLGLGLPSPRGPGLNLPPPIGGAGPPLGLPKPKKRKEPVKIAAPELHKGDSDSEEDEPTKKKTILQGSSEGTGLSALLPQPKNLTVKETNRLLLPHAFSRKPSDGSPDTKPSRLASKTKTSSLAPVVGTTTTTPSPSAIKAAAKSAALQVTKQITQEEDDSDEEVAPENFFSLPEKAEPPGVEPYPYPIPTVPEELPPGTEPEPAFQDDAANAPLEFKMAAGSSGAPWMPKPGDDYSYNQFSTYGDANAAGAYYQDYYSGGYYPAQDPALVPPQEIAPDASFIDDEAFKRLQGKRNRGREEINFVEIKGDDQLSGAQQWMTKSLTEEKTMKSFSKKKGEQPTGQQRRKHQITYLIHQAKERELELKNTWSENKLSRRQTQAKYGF
UniProt Q92598: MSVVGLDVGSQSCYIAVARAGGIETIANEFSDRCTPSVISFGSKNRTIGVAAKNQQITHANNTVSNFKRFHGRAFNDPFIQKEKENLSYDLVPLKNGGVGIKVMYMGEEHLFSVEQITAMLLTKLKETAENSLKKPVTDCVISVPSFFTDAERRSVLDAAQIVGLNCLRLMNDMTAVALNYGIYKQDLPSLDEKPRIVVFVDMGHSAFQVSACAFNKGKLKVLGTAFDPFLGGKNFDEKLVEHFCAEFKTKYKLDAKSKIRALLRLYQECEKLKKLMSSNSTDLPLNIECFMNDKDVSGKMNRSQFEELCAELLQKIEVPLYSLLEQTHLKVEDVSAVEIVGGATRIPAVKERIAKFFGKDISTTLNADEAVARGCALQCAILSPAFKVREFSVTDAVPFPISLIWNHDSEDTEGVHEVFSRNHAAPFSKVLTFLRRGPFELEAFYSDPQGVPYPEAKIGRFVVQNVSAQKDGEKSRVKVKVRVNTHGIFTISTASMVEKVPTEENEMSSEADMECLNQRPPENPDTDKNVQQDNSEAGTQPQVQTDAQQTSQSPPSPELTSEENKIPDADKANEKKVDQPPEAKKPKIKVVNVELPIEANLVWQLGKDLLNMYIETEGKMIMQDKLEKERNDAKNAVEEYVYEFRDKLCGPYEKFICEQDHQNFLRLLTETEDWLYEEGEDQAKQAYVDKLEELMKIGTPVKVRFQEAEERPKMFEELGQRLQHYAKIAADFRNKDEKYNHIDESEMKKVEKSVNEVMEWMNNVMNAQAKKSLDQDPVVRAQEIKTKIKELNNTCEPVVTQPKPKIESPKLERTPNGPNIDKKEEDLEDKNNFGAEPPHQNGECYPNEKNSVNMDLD
UniProt Q92664: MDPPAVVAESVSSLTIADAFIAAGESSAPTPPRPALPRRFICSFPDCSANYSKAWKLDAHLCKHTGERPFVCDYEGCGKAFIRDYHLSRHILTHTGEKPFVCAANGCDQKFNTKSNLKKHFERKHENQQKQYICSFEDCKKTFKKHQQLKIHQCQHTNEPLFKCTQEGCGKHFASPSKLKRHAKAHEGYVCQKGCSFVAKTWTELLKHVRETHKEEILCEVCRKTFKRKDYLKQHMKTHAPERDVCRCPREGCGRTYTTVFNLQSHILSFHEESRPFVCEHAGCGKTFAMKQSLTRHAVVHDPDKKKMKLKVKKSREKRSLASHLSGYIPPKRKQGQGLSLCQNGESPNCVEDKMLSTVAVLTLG
UniProt Q8WYQ5: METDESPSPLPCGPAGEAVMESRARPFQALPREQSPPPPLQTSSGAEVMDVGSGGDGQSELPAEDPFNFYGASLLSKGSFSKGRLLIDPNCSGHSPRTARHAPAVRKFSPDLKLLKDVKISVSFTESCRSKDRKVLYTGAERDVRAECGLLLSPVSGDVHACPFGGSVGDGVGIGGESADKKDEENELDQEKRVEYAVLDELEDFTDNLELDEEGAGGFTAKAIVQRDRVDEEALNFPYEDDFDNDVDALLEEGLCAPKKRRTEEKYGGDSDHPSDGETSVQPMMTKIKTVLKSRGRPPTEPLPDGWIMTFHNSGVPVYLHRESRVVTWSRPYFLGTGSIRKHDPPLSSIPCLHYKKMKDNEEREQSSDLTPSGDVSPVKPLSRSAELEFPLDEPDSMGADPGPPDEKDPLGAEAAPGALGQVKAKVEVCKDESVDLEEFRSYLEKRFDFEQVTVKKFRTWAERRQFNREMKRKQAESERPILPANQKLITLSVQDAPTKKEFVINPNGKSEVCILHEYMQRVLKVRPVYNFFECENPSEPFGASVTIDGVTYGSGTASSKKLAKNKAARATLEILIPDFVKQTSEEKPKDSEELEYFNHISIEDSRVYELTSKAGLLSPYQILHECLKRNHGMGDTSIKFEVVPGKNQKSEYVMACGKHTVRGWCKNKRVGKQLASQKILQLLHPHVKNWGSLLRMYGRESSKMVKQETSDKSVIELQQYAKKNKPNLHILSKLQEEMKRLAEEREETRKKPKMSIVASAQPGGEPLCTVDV
UniProt Q92797: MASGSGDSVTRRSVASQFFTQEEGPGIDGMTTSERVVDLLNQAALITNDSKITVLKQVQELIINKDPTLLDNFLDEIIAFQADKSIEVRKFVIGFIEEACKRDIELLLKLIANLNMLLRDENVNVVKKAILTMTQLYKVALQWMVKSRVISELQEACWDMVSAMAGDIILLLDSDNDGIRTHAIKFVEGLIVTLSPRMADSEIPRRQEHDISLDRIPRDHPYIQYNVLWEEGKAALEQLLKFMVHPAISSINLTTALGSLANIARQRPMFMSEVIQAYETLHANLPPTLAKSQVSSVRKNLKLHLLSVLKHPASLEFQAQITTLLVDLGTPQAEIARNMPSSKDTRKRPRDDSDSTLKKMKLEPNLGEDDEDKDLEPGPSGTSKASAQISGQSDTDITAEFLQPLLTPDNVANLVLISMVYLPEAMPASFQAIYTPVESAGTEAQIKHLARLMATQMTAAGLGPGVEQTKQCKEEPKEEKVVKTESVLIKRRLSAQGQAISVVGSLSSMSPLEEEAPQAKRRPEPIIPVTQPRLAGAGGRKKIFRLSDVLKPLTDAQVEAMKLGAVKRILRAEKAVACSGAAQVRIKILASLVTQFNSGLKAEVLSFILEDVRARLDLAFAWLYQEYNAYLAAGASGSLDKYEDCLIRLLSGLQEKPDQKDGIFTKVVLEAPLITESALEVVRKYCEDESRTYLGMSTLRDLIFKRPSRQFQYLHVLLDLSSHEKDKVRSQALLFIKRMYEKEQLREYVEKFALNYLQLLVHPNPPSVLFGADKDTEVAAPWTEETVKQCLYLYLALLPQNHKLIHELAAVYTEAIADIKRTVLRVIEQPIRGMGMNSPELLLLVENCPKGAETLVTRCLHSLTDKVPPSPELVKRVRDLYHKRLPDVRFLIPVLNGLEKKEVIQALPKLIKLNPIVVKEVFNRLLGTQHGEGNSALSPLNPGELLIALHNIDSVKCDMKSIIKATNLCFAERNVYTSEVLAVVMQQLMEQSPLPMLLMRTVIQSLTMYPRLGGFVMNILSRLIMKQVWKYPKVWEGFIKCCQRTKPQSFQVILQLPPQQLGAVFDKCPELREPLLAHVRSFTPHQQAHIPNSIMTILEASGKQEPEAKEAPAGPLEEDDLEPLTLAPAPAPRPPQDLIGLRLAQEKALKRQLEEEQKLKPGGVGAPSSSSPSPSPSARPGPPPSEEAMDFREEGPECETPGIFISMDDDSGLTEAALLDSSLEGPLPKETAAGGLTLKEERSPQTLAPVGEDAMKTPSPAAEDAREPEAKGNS
UniProt Q8WTS1: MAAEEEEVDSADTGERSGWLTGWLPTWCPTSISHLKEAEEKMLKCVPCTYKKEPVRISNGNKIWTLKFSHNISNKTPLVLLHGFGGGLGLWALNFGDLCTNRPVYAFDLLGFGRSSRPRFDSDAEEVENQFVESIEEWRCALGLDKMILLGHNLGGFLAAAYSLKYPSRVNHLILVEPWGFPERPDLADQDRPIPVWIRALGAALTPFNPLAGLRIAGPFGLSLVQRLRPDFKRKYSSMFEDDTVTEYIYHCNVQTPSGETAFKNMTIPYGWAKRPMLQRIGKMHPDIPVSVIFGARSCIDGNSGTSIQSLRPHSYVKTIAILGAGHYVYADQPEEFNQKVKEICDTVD
UniProt Q92622: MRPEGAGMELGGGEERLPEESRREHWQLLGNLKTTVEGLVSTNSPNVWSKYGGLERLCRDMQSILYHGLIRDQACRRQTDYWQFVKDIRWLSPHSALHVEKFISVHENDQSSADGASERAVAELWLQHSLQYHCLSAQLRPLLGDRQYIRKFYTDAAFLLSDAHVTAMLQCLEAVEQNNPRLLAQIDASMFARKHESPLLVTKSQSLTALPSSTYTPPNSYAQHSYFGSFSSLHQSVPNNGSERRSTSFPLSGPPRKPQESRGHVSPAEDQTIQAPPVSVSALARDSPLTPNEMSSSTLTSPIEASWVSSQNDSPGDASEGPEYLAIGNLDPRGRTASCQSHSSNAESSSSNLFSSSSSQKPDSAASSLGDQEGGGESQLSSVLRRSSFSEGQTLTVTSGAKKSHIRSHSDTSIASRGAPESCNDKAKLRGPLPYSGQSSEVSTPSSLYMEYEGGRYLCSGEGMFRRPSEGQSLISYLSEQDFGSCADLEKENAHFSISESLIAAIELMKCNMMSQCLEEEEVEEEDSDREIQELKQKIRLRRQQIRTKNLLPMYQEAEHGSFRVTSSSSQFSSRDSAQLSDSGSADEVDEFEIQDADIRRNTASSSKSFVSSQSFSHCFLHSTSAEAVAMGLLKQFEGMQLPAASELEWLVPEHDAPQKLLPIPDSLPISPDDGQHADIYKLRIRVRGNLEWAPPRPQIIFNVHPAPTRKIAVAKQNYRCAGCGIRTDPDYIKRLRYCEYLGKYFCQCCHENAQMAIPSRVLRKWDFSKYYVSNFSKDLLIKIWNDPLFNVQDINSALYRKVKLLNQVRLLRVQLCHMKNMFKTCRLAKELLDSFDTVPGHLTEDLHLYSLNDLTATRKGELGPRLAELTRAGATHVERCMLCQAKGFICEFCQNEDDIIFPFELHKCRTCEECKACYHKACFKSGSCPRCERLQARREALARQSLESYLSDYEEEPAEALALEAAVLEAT

The targets below were run with CN[C@@H]1C[C@H]2O[C@@](C)([C@@H]1OC)n1c3ccccc3c3c4c(c5c6ccccc6n2c5c31)C(=O)NC4 [staurosporine] (assay: log2 fold change of tryptic peptide abundance, ligand vs vehicle (limited proteolysis) (log2 ratio); higher = more trypsin-susceptible (destabilized)). Conditions: ligand concentration: 20 uM; sample: K562 cleared lysate; digestion: 4 min, 22 C (HT-PELSA RT4min, Orbitrap Astral).
With “STON2 (peptide sequence: SQNSSISSTTGK, peptide start residue: 342) (UniProt Q8WXE9)” the log2 fold change was -0.199.
In the case of “PRCC (peptide sequence: GDDQLSGAQQWMTK, peptide start residue: 415) (UniProt Q92733)”, the log2 fold change is reported as -0.585.
With “PHIP (peptide sequence: GSISSTSEVHSPPNVGLR, peptide start residue: 673) (UniProt Q8WWQ0)” the log2 fold change was 0.474.
“HSPH1 (peptide sequence: IGRFVVQNVSAQK, peptide start residue: 459) (UniProt Q92598)” showed a log2 fold change of 0.676.
“GTF3A (peptide sequence: SLASHLSGYIPPK, peptide start residue: 320) (UniProt Q92664)” was tested, and the log2 fold change was 0.182.
In the case of “DGCR8 (peptide sequence: SVIELQQYAKK, peptide start residue: 714) (UniProt Q8WYQ5)”, the log2 fold change is reported as -0.274.
Work on “SYMPK (peptide sequence: LIHELAAVYTEAIADIKR, peptide start residue: 804) (UniProt Q92797)” yielded a log2 fold change of 0.275.
In the case of “ABHD5 (peptide sequence: MHPDIPVSVIFGAR, peptide start residue: 284) (UniProt Q8WTS1)”, the log2 fold change is reported as -0.371.
“RUBCN (peptide sequence: LLAQIDASMFAR, peptide start residue: 182) (UniProt Q92622)” gave a log2 fold change of -0.527.
